# Test results published in the supplement of paper PMC8728848.
# This is one part of the list.
# B1: Gal 12 (Homo sapiens), Q96DT0 (protein)
# chain: MSQPSGGRAPGTRIYSWSCPTVMSPGEKLDPIPDSFILQPPVFHPVVPYVTTIFGGLHAGKMVMLQGVVPLDAHRFQVDFQCGCSLCPRPDIAFHFNPRFHTTKPHVICNTLHGGRWQREARWPHLALRRGSSFLILFLFGNEEVKVSVNGQHFLHFRYRLPLSHVDTLGIFGDILVEAVGFLNINPFVEGSREYPAGHPFLLMSPRLEVPCSHALPQGLSPGQVIIVRGLVLQEPKHFTVSLRDQAAHAPVTLRASFADRTLAWISRWGQKKLISAPFLFYPQRFFEVLLLFQEGGLKLALNGQGLGATSMNQQALEQLRELRISGSVQLYCVHS
# How the values were obtained:
# Experiment in all cases: glycan array binding signal (z-score within array); higher = stronger binding
# Conditions in all cases: glycan notation: IUPAC condensed, linker removed
# [1] = target: Man(a1-3)[Man(a1-6)]Man(a1-6)[Man(a1-2)Man(a1-3)]Man(b1-4)GlcNAc(b1-4)GlcNAc
# Method in brief: (§1)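 Columns mapping to the same glycan were averaged after glycan names were converted to IUPAC-condensed notation. The data come from 3228 arrays in the Consortium for Functional Glycomics database, limited to those with an available protein sequence. Binding is reported as a within-array Z-score averaged across arrays of one protein sequence and across linkers.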
# [2] = target: Man(a1-3)[Man(a1-6)]Man(a1-6)[Man(a1-3)]Man
# Method in brief: as §1
# [3] = target: Man(a1-3)[Man(a1-6)]Man(a1-6)[Man(a1-3)]Man(b1-4)GlcNAc(b1-4)GlcNAc
# Method in brief: as §1
# [4] = target: Man(a1-3)[Man(a1-6)]Man(b1-4)GlcNAc(b1-4)GlcNAc
# Method in brief: as §1
# [5] = target: Man(a1-3)[Man(a1-6)]Man(b1-4)GlcNAc(b1-4)[Fuc(a1-6)]GlcNAc
# Method in brief: as §1
# Man(a1-6)Man = target: Man(a1-6)Man
# Method in brief: as §1
# Man(b1-4)GlcNAc = target: Man(b1-4)GlcNAc
# Method in brief: as §1
# MurNAc(b1-4)GlcNAc = target: MurNAc(b1-4)GlcNAc
# Method in brief: as §1
# Neu5Ac(a2-3)Gal = target: Neu5Ac(a2-3)Gal
# Method in brief: as §1
# [6] = target: Neu5Ac(a2-3)Gal(b1-3)GalNAc
# Method in brief: as §1
# [7] = target: Neu5Ac(a2-3)Gal(b1-3)GalNAc(b1-3)Gal(a1-4)Gal(b1-4)Glc
# Method in brief: as §1
# [8] = target: Neu5Ac(a2-3)Gal(b1-3)GalNAc(b1-4)[Neu5Ac(a2-3)]Gal(b1-4)Glc
# Method in brief: as §1
# [9] = target: Neu5Ac(a2-3)Gal(b1-3)GalNAc(b1-4)[Neu5Ac(a2-8)Neu5Ac(a2-3)]Gal(b1-4)Glc
# Method in brief: as §1
# [10] = target: Neu5Ac(a2-3)Gal(b1-3)GalNAc6S
# Method in brief: as §1
# [11] = target: Neu5Ac(a2-3)Gal(b1-3)GlcNAc
# Method in brief: as §1
# [12] = target: Neu5Ac(a2-3)Gal(b1-3)GlcNAc(b1-2)Man
# Method in brief: as §1
# [13] = target: Neu5Ac(a2-3)Gal(b1-3)GlcNAc(b1-2)Man(a1-3)[GlcNAc(b1-4)][Neu5Ac(a2-3)Gal(b1-3)GlcNAc(b1-2)Man(a1-6)]Man(b1-4)GlcNAc(b1-4)GlcNAc
# Method in brief: as §1
# [14] = target: Neu5Ac(a2-3)Gal(b1-3)GlcNAc(b1-2)Man(a1-3)[Neu5Ac(a2-3)Gal(b1-3)GlcNAc(b1-2)Man(a1-6)]Man(b1-4)GlcNAc(b1-4)GlcNAc
# Method in brief: as §1
# [15] = target: Neu5Ac(a2-3)Gal(b1-3)GlcNAc(b1-3)Gal(b1-3)GlcNAc
# Method in brief: as §1
# [16] = target: Neu5Ac(a2-3)Gal(b1-3)GlcNAc(b1-3)Gal(b1-4)GlcNAc
# Method in brief: as §1
# [17] = target: Neu5Ac(a2-3)Gal(b1-3)GlcNAc(b1-3)GalNAc
# Method in brief: as §1
# [18] = target: Neu5Ac(a2-3)Gal(b1-3)GlcNAc(b1-4)Gal(b1-4)Glc
# Method in brief: as §1
# [19] = target: Neu5Ac(a2-3)Gal(b1-3)GlcNAc(b1-6)GalNAc
# Method in brief: as §1
# [20] = target: Neu5Ac(a2-3)Gal(b1-3)GlcNAc6S
# Method in brief: as §1
# [21] = target: Neu5Ac(a2-3)Gal(b1-3)[Fuc(a1-4)]GlcNAc
# Method in brief: as §1
# [22] = target: Neu5Ac(a2-3)Gal(b1-3)[Fuc(a1-4)]GlcNAc(b1-3)Gal(b1-3)[Fuc(a1-4)]GlcNAc
# Method in brief: as §1
# [23] = target: Neu5Ac(a2-3)Gal(b1-3)[Fuc(a1-4)]GlcNAc(b1-3)Gal(b1-4)[Fuc(a1-3)]GlcNAc
# Method in brief: as §1
# [24] = target: Neu5Ac(a2-3)Gal(b1-3)[GlcNAc(b1-6)]GalNAc
# Method in brief: as §1
# [25] = target: Neu5Ac(a2-3)Gal(b1-3)[Neu5Ac(a2-3)Gal(b1-4)]GlcNAc
# Method in brief: as §1
# [26] = target: Neu5Ac(a2-3)Gal(b1-3)[Neu5Ac(a2-6)]GalNAc
# Method in brief: as §1
# [27] = target: Neu5Ac(a2-3)Gal(b1-3)[Neu5Ac(a2-6)]GlcNAc(b1-3)[Fuc(a1-3)[Gal(b1-4)]GlcNAc(b1-6)]Gal(b1-4)Glc
# Method in brief: as §1
# [28] = target: Neu5Ac(a2-3)Gal(b1-3)]Neu5Ac(a2-3)Gal(b1-4)]GlcNAc
# Method in brief: as §1
# Neu5Ac(a2-3)Gal(b1-4)Glc = target: Neu5Ac(a2-3)Gal(b1-4)Glc
# Method in brief: as §1
# [29] = target: Neu5Ac(a2-3)Gal(b1-4)GlcNAc
# Method in brief: as §1
# [30] = target: Neu5Ac(a2-3)Gal(b1-4)GlcNAc(b1-2)Man
# Method in brief: as §1
# [31] = target: Neu5Ac(a2-3)Gal(b1-4)GlcNAc(b1-2)Man(a1-3)[GlcNAc(b1-2)Man(b1-4)GlcNAc(b1-2)Man(a1-6)]Man(b1-4)GlcNAc(b1-4)GlcNAc
# Method in brief: as §1
# [32] = target: Neu5Ac(a2-3)Gal(b1-4)GlcNAc(b1-2)Man(a1-3)[GlcNAc(b1-4)][Neu5Ac(a2-3)Gal(b1-4)GlcNAc(b1-2)Man(a1-6)]Man(b1-4)GlcNAc(b1-4)GlcNAc
# Method in brief: as §1
# [33] = target: Neu5Ac(a2-3)Gal(b1-4)GlcNAc(b1-2)Man(a1-3)[Neu5Ac(a2-3)Gal(b1-4)GlcNAc(b1-2)Man(a1-6)]Man(b1-4)GlcNAc(b1-4)GlcNAc
# Method in brief: as §1
binder,measurement,setting,value
B1,glycan array binding signal (z-score),[1],-0.406
same,glycan array binding signal (z-score),[2],0.162
same,glycan array binding signal (z-score),[3],0.058
same,glycan array binding signal (z-score),[4],-0.172
same,glycan array binding signal (z-score),[5],-0.193
same,glycan array binding signal (z-score),Man(a1-6)Man,-0.442
same,glycan array binding signal (z-score),Man(b1-4)GlcNAc,-0.114
same,glycan array binding signal (z-score),MurNAc(b1-4)GlcNAc,0.849
same,glycan array binding signal (z-score),Neu5Ac(a2-3)Gal,-0.039
same,glycan array binding signal (z-score),[6],-0.079
same,glycan array binding signal (z-score),[7],-0.606
same,glycan array binding signal (z-score),[8],0.416
same,glycan array binding signal (z-score),[9],-0.646
same,glycan array binding signal (z-score),[10],-0.649
same,glycan array binding signal (z-score),[11],-0.241
same,glycan array binding signal (z-score),[12],0.245
same,glycan array binding signal (z-score),[13],-0.466
same,glycan array binding signal (z-score),[14],0.608
same,glycan array binding signal (z-score),[15],-0.55
same,glycan array binding signal (z-score),[16],-0.421
same,glycan array binding signal (z-score),[17],-0.063
same,glycan array binding signal (z-score),[18],0.109
same,glycan array binding signal (z-score),[19],0.019
same,glycan array binding signal (z-score),[20],-0.109
same,glycan array binding signal (z-score),[21],-0.301
same,glycan array binding signal (z-score),[22],-0.082
same,glycan array binding signal (z-score),[23],0.115
same,glycan array binding signal (z-score),[24],0.381
same,glycan array binding signal (z-score),[25],-0.578
same,glycan array binding signal (z-score),[26],-0.587
same,glycan array binding signal (z-score),[27],-0.207
same,glycan array binding signal (z-score),[28],0.199
same,glycan array binding signal (z-score),Neu5Ac(a2-3)Gal(b1-4)Glc,-0.562
same,glycan array binding signal (z-score),[29],-0.736
same,glycan array binding signal (z-score),[30],0.109
same,glycan array binding signal (z-score),[31],-0.006
same,glycan array binding signal (z-score),[32],1.22
same,glycan array binding signal (z-score),[33],2.18

# Some of the entries so far, bar-delimited.
binder | measurement | setting | value
B1 | glycan array binding signal (z-score) | [4] | -0.172
same | glycan array binding signal (z-score) | [18] | 0.109
